# Values from PubChem BioAssay AID504744 (Drosophila RNAi Screening Center, 2011)
# Purpose: 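Uncover factors, including feedback loops, that control dAkt activation in fly cells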 (primary screen)
# Cell system: Drosophila Kc167 cells
# Reagents: long dsRNA against Drosophila genes, 250 ng dsRNA per well of a 384-well plate
# Time to read-out: 3 days of knock-down, then overnight serum-free starvation before stimulation
# Challenge: bovine insulin at 387 nM for 10 minutes after 12 h without serum
# Read-out: 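In-cell antibody fluorescence for phospho-dAkt in each well over DNA-dye signal, with log2 residuals expressed as z-scores adjusted for cell count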
# Rule for the call: 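Under insulin, a gene counts as a hit if the average z-score of two replicates lies above 2.5 or below -2.5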
# The deposit covers about 23,000 reagents; shown is a random part of those that have a named target and a result. Of all reagents, 98 (0.43%) got an active call. 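Only hit calls are given; the phospho-dAkt signals, z-scores and hit direction were not deposited.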 The numbers tell different reagents against one gene apart. A plus sign joins genes that one reagent is predicted to hit.
gene,reagent,Outcome
lncRNA:CR32660,1,inactive
CG13950,1,inactive
CG33060,1,inactive
Ccz1,1,inactive
CG10089,1,inactive
CG10089,2,inactive
Rab9Db + Rab9D + Rab9Fa + 1 more,1,inactive
AttB,1,inactive
TTLL6A,1,inactive
CG34248,1,inactive
Atg10,1,inactive
tpr,1,inactive
PI31,1,inactive
CG34398,1,inactive
CG34398,2,inactive
CG34398,3,inactive
CG34398,4,inactive
CG6805,1,inactive
CG7387,1,inactive
Srp68,1,inactive
Sec63,1,inactive
TMEM216,1,inactive
CG31199,1,inactive
COX7C,1,inactive
CG7514,1,inactive
sunn,1,inactive
Nha1,1,inactive
CG7430,1,inactive
CG10064,1,inactive
yip7,1,inactive
FoxP,1,inactive
FoxP,2,inactive
CG17612,1,inactive
dpr5,1,inactive
klu,1,inactive
RabX6,1,inactive
Tudor-SN,1,inactive
CG15756,1,inactive
PGRP-LA,1,inactive
PGRP-LA,2,inactive
CG11808,1,inactive
CAH15,1,inactive
CG33331 + CG33332,1,inactive
Su(var)3-9,1,inactive
CG15554,1,inactive
EAChm,1,inactive
sno,1,inactive
Chro,1,inactive
CG12682,1,inactive
CG4611,1,inactive
mRpS16,1,inactive
CG14062,1,inactive
Tpst,1,inactive
Tpst,2,inactive
Tpst,3,inactive
Tpst,4,inactive
Tpst,5,inactive
Hayan,1,inactive
Hayan,2,inactive
Pdh,1,inactive
CG13203,1,inactive
Lkb1,1,inactive
CG33966,1,inactive
Pp1-13C,1,inactive
tous,1,inactive
Gyf,1,inactive
CG12231,1,inactive
CG18469,1,inactive
PIG-S,1,inactive
PIG-S,2,inactive
PIG-S,3,inactive
tank,1,inactive
CG33278,1,inactive
Grik,1,inactive
Grik,2,inactive
CG34135,1,inactive
CG14837,1,inactive
CG15628,1,inactive
CG15628,2,inactive
Lst,1,inactive
bt,1,inactive
bt,2,inactive
Dgat2,1,inactive
Pdxk,1,inactive
Atu,1,inactive
Miro,1,inactive
Myo10A,1,inactive
Myo10A,2,inactive
CG42813 + CG42814,1,inactive
CG42813 + CG42814,2,inactive
e(y)3,1,inactive
Map205,1,inactive
inaF-A,1,inactive
CG8915,1,inactive
CG14573,1,inactive
CG46298,1,inactive
EndoG,1,inactive
EndoG,2,inactive
CG32683,1,inactive
CG32683,2,inactive
CG32683,3,inactive
Naa30B,1,inactive
CG4168,1,inactive
CG4168,2,active
CG4168,3,inactive
CG4168,4,inactive
CG4168,5,inactive
CG13501,1,inactive
CG31704,1,inactive
Cep164,1,inactive
N,1,inactive
sunz,1,inactive
CG31103,1,inactive
CG14947,1,inactive
CG15262,1,inactive

Records above whose gene name begins with F or f:
gene,reagent,Outcome
FoxP,1,inactive
FoxP,2,inactive

Further entries:
gene,reagent,Outcome
Rich,1,inactive
CG5853,1,inactive
CG5853,2,inactive
CG8908,1,inactive
CG15877,1,inactive
fwe,1,inactive
fwe,2,inactive
fwe,3,inactive
Elo68alpha,1,inactive
Gr68a,1,inactive
dpr17,1,inactive
dpr17,2,inactive
dpr17,3,inactive
CG10555,1,inactive
Paris,1,inactive
CG32652 (retired record),1,inactive
CG32652 (retired record),2,inactive
CG31446,1,inactive
eys,1,inactive
eys,2,inactive
eys,3,inactive
eys,4,inactive
CG15650,1,inactive
uex,1,inactive
uex,2,inactive
CG11698,1,inactive
CG33232 (retired record),1,inactive
CG33232 (retired record),2,inactive
CG12010,1,inactive
CG15142,1,inactive
gb,1,inactive
CG14200,1,inactive
dgt4,1,inactive
Cap-H2,1,inactive
Cnx99A + Cnx14D,1,inactive
CG5550,1,inactive
CG5390,1,inactive
CG32651,1,inactive
CG4459,1,inactive
CG5397,1,inactive
Mondo,1,inactive
Mondo,2,inactive
Mondo,3,inactive
Pisd,1,inactive
CG7611,1,inactive
CG18596,1,inactive
Nepl17,1,inactive
PIG-L,1,inactive
CG4332,1,inactive
CG12158,1,inactive
CG2887,1,inactive
Karl,1,inactive
CG11436,1,inactive
CG13947,1,inactive
CG9692,1,inactive
Rel,1,inactive
CG12159,1,inactive
Plod,1,inactive
Plod,2,inactive
CG31917 + Tfb5,1,inactive
CG31917 + Tfb5,2,inactive
drn,1,inactive
pasha,1,inactive
CG30187,1,inactive
CG3184,1,inactive
Eaf6,1,inactive
Polr3H,1,inactive
scb,1,inactive
scb,2,inactive
mRpL13,1,inactive
CG11307,1,inactive
Gcna,1,inactive
z,1,inactive
CG11382,1,inactive
CG9436,1,inactive
CG33298,1,inactive
CG33298,2,inactive
Toll-7,1,inactive
CG6330,1,inactive
mamo,1,inactive
CG17470,1,inactive
7SLRNA:CR42652 + 7SLRNA:CR32864,1,inactive
CG4783,1,inactive
CG13116,1,inactive
CG13116,2,inactive
